Results reported in PMC8716928.
No constants are given. Whether binding was seen depends on the method and setting. In cells and extracts the contact can be indirect. Binding calls can cover weak binding; strength is not graded here. Sequences can lack the tags named with a protein.

By UniProt entry, the sequences of proteins in these tests, tags left out. Where a name states a change or a piece, a line headed by the entry shows the natural chain unless it says otherwise.
UniProt P24374: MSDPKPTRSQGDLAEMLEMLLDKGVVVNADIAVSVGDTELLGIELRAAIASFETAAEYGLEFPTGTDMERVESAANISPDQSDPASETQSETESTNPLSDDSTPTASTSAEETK
UniProt P24377: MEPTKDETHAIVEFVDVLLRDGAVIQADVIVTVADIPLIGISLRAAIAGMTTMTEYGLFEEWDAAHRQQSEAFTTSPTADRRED

Columns and labels:
[1] = molecular target: T1, GvpL with NGFP fused at the N-terminus (Halobacterium salinarum) (UniProt Q9HI27); experiment: split reporter; split-GFP (salt-stable mGFP2, split between aa 157 and 158) in Hfx. volcanii transformants, combination JC/NL; cultures 24 h at 37°C then 24 h at 30°C; relative fluorescence (rf) of cells against untransformed WR340
T1 sequence: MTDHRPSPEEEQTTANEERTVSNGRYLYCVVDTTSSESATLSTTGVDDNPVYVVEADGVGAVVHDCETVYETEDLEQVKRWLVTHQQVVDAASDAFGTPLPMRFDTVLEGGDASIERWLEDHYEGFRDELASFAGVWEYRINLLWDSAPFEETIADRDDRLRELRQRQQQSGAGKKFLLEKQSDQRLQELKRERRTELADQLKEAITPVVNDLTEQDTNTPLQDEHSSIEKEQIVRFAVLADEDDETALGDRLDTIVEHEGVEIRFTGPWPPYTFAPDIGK

[2] = molecular target: T1, GvpL with NGFP fused at the N-terminus (Halobacterium salinarum); experiment: split reporter; split-GFP (mGFP2) in Hfx. volcanii transformants, combination NL/MC with the entire GvpM; relative fluorescence (rf) of cells against untransformed WR340

| Substance | binding [1] | binding [2] |
| --- | --- | --- |
| GvpJ variant M19E with CGFP fused at the C-terminus (from UniProt P24374) | binds |  |
| GvpM variant D21A (split-GFP fusion; parent not named) (from UniProt P24377) |  | binds |
| GvpM variant R20A (split-GFP fusion; parent not named) (from UniProt P24377) |  | binds |

More lines, now with the values ahead:

| binding [1] | binding [2] | Substance |
| --- | --- | --- |
|  | binds | GvpM variant E13A (split-GFP fusion; parent not named) (from UniProt P24377) |
|  | binds | GvpM variant G22D (split-GFP fusion; parent not named) (from UniProt P24377) |
